Test results: patent US12012399B2, “Microbiocidal quinoline dihydro-(thiazine)oxazine derivatives” (priority 2018, dated 2024)
Some of these results come from one statement about several compounds together. For some assays here: At least one structure is not confirmed: it was looked up by name or label, or the drawing left a doubt.

Columns and labels:
[1] = system: Botryotinia fuckeliana (Botrytis cinerea); experiment: Botryotinia fuckeliana (Botrytis cinerea) / liquid culture (gray mould); format: cell-based; settings: 20 ppm; compared to untreated control; growth inhibition determined photometrically 3-4 days after application
[2] = system: Monographella nivalis (Microdochium nivale); experiment: Monographella nivalis (Microdochium nivale) / liquid culture (foot rot cereals); format: cell-based; settings: 20 ppm; compared to untreated control; growth inhibition determined photometrically 4-5 days after application
[3] = system: Mycosphaerella graminicola (Septoria tritici); experiment: Mycosphaerella graminicola (Septoria tritici) on wheat / preventative; format: in vivo; settings: 60 ppm; wheat plants sprayed, inoculated one day after application; assessed 16-19 days after application vs untreated control
[4] = system: Mycosphaerella graminicola (Septoria tritici); experiment: Mycosphaerella graminicola (Septoria tritici) / liquid culture (Septoria blotch); format: cell-based; settings: 20 ppm; compared to untreated control; growth inhibition determined photometrically 4-5 days after application
[5] = system: Glomerella lagenarium (Colletotrichum lagenarium); experiment: Glomerella lagenarium (Colletotrichum lagenarium) / liquid culture (anthracnose); format: cell-based; settings: 20 ppm; compared to untreated control; growth inhibition measured photometrically 3-4 days after application

SMILES	control of Botryotinia fuckeliana [1]	control of Monographella nivalis [2]	control of Septoria tritici [3]	control of Mycosphaerella graminicola [4]	control of Glomerella lagenarium [5]
CC1(Cc2ccccc2)CC(C)(C)OC(c2cnc3c(F)cccc3c2)=N1 (centres unmarked) [F-1]	at least 80%	at least 80%	–	–	–
CC1(C)CC(Cc2ccccc2)N=C(c2cnc3c(F)c(F)ccc3c2)O1 (centres unmarked) [F-6]	at least 80%	at least 80%	at least 80%	at least 70%	–
CC1(C)CC(Cc2ccc(F)cc2)N=C(c2cnc3c(F)c(F)ccc3c2)O1 (centres unmarked) [F-8]	at least 80%	at least 80%	at least 80%	–	–
CC1(Cc2ccccc2)CC(C)(C)OC(c2cnc3c(F)cccc3c2)=N1 (centres unmarked) [F-2]	at least 80%	at least 80%	–	at least 70%	at least 80%
CC1(C)CC(Cc2ccccc2)N=C(c2cnc3c(F)c(F)ccc3c2)O1 (centres unmarked) [E-8, 4-benzyl-2-(7,8-difluoro-3-quinolyl)-6,6-dimethyl-4,5-dihydro-1,3-oxazine]	at least 80%	at least 80%	–	at least 70%	–
CC1(C)CC(Cc2ccc(F)cc2)N=C(c2cnc3c(F)c(F)ccc3c2)O1 (centres unmarked) [F-7]	at least 80%	at least 80%	–	–	–
CC1(C)C[C@@H](Cc2ccccc2)N=C(c2cnc3c(F)cccc3c2)O1 [F-4]	–	–	–	–	at least 80%
CC1(C)CC(Cc2ccc(F)cc2)N=C(c2cnc3c(F)c(F)ccc3c2)O1 (centres unmarked) [E-18, 2-(7,8-difluoro-3-quinolyl)-4-[(4-fluorophenyl)methyl]-6,6-dimethyl-4,5-dihydro-1,3-oxazine]	–	–	at least 80%	–	–
CC1(C)C[C@@H](Cc2ccccc2)N=C(c2cnc3c(F)cccc3c2)O1 [F-3]	at least 80%	at least 80%	–	at least 70%	–
